Experimental data published in patent EP4778539A1.
These are yes or no findings as the source states them, for the method shown. Some entries that bind do so weakly or less than the wild type.

Key:
[1] = target: T1, mouse CAPRIN-1 on the cell membrane surface of mouse cancer cells (mouse) (UniProt Q60865); assay: flow cytometry, 4T1
T1 sequence (looked up): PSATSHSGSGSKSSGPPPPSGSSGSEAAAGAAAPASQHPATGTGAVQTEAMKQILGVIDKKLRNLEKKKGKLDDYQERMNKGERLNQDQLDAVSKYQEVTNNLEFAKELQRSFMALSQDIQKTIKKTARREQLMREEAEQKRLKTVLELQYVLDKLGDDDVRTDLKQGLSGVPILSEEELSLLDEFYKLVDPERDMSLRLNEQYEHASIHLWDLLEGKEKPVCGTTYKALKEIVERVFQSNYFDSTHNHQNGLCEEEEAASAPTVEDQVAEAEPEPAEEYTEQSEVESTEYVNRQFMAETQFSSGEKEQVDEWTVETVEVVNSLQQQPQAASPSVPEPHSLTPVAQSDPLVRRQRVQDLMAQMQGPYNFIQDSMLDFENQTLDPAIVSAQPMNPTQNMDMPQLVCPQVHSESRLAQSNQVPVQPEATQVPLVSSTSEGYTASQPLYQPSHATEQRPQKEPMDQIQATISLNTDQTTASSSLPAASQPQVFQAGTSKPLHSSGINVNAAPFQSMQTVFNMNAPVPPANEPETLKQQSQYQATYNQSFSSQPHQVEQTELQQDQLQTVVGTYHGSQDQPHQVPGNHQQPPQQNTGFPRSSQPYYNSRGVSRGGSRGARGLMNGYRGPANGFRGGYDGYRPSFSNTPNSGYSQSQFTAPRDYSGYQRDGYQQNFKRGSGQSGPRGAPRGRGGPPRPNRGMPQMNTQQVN

[2] = target: T2, human CAPRIN-1 on the cell membrane surface of human cancer cells (human) (UniProt Q14444); assay: flow cytometry, HT29
T2 sequence (looked up): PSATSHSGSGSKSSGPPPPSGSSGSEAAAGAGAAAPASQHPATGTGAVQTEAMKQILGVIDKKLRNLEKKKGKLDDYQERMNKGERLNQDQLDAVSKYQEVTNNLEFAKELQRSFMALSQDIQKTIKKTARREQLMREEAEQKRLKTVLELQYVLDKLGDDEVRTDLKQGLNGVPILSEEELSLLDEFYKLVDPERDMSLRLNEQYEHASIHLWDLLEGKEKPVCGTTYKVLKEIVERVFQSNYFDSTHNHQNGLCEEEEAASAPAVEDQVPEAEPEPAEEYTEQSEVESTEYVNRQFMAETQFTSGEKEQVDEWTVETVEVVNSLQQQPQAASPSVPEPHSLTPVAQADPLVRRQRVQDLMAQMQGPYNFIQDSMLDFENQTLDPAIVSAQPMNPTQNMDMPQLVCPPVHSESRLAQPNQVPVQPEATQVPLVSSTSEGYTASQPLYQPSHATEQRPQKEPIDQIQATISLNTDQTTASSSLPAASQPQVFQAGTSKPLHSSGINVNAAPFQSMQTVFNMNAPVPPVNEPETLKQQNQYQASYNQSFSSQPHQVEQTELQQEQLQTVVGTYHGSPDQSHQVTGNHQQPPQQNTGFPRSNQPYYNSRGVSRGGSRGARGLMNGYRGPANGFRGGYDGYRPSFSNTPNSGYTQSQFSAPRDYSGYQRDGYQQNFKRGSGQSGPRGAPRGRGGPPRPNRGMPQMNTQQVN

[3] = target: T2, human CAPRIN-1 on the cell membrane surface of human cancer cells (human); assay: flow cytometry, human cancer cells
[4] = target: T1, mouse CAPRIN-1 on the cell membrane surface of mouse cancer cells (mouse); assay: flow cytometry, mouse cancer cells

Measured: binding

B1: F(ab')2 complex #9 (protein)
VH: AVTLDESGGGLQTPGGALSLVCKASGFTFSGYDMLWVRQAPGKGLEWVAGIGSTGGGTDYGAAVKGRATISRDNGQSTVRLQLNNLRAEDTATYYCAKVAGGCNSGYCRDSPGSIDAWGHGTEVIVS
VL: AVTQQPASVSANPGETVKITCSGGGSRNYYGWYQQKSPGSVPVTVIYYDDQRPSNIPSRFSGALSGSTSTLTITGVQADDEAVYFCGSADSNTYEGSFGAGTTLTVL
binds: [1] | [2] | [3] | [4]

B2: F(ab')2 complex #13 (protein)
VH: GAELVRSGASVKMSCKASGYSFTDYNMYWVKQTPGQGLEWIGYIYPGNGGTNYNQKFKGKATLTADTSSSTAYMQISSLTSEDSAVYFCARDYDDGGYAMDYWGQGTTVTVSS
VL: DIQMTQSPASLSASVGETVTITCRASGNIHNYLTWYQQKQGKSPQLLVYNAKTLADGVPSRFSGSGSGTQYSLKINRLQPEDFGSYYCQHFWNIPWTFGGGTKLNSR
binds: [1] | [2] | [3] | [4]

B3: F(ab')2 complex #36 (protein)
VH: EVQLVESGGGLVQPGGSLRLSCAASGFSLSSHSLGWVRQAPGKGLEWIGDIRSGGSAYYANWAKGRFTISRDNSKNTLYLQMNSLRAEDTAVYYCTRTNGPSDLTNRLDLWGQGTLVTVSS
VL: QVLTQSPSSLSASVGDRVTINCQASQSLYNNENLAWFQQKPGKVPKRLIYGASTLASGVSSRFSGSGSGTEFTLTISSLQCEDFAIYYCLGEFSCGSADCFAFGGGTKVEIK
binds: [1] | [2] | [3] | [4]

B4: F(ab')2 complex #37 (protein)
VH: EVQLVESGGGLVQPGGSLRLSCAASGFSLSSHSLGWVRQAPGKGLEWIGDIRSGGSAYYANWAKGRFTISRDNSKNTLYLQMNSLRAEDTAVYFCTRTNGPSDLTNRLDLWGQGTLVTVSS
VL: QVLTQSPSSLSASVGDRVTINCQASQSLYNNENLAWFQQKPGKVPKRLIYGASTLASGVSSRFSGSGSGTEFTLTISSLQCEDFAIYYCLGEFSCGSADCFAFGGGTKVEIK
binds: [1] | [2] | [3] | [4]

B5: F(ab')2 complex #38 (protein)
VH: EVQLVESGGGLVQPGGSLRLSCAASGFSLSSHSLGWVRQAPGKGLEWIGDIRSGGSAYYANWAKGRFTISRDNSKNTLYLQMNSLRAEDTAVYYCTRTNGPSDLTNRLDLWGQGTLVTVSS
VL: EQVLTQSPSSLSASVGDRVTINCQASQSLYNNENLAWFQQKPGKVPKRLIYGASTLASGVSSRFSGSGSGTEFTLTISNLQPEDFAIYYCLGEFSCGSADCFAFGGGTKVEIK
binds: [1] | [2] | [3] | [4]

B6: F(ab')2 complex #39 (protein)
VH: EVQLVESGGGLVQPGGSLRLSCAASGFSLSSHSLGWVRQAPGKGLEWIGDIRSGGSAYYANWAKGRFTISRDNSKNTLYLQMNSLRAEDTAVYFCTRTNGPSDLTNRLDLWGQGTLVTVSS
VL: EIVLTQSPSSLSASVGDRVTINCQASQSLYNNENLAWFQQKPGKVPKRLIYGASTLASGVSSRFSGSGSGTEFTLTISNLQPEDFATYYCLGEFSCGSADCFAFGGGTKVEIK
binds: [1] | [2] | [3] | [4]

B7: F(ab')2 complex #40 (protein)
VH: EVQLVESGGGLVQPGGSLRLSCAASGFSLSSHSLGWVRQAPGKGLEWIGDIRSGGSAYYANWAKGRFTISRDNSKNTLYLQMNSLRAEDTAVYYCTRTNGPSDLTNRLDLWGQGTLVTVSS
VL: EIVLTQSPSSLSASVGDRVTINCQASQSLYNNENLAWFQQKPGKVPKRLIYGASTLASGVSSRFSGSGSGTEFTLTISNLQPEDFATYYCLGEFSCGSADCFAFGGGTKVEIK
binds: [1] | [2] | [3] | [4]

B8: F(ab')2 complex #41 (protein)
VH: EVQLVESGGGLVQPGGSLRLSCAASGFSLSSHSLGWVRQAPGKGLEWIGDIRSGGSAYYANWAKGRFTISRDNSKNTLYLQMNSLRAEDTAVYFCTRTNGPSDLTNRLDLWGQGTLVTVSS
VL: EQVLTQSPSSLSASVGDRVTINCQASQSLYNNENLAWFQQKPGKVPKRLIYGASTLASGVSSRFSGSGSGTEFTLTISNLQPEDFAIYYCLGEFSCGSADCFAFGGGTKVEIK
binds: [1] | [2] | [3] | [4]

B9: F(ab')2 complex #42 (protein)
VH: AVTLDESGGGLQTPGGALSLVCKASGFTFSGYDMLWVRQAPGKGLEWVAGIGSTGGGTDYGAAVKGRATISRDNGQSTVRLQLNNLRAEDTATYYCAKVAGGCNSGYCRDSPGSIDAWGHGTEVIVS
VL: AVTQQPASVSANPGETVKITCSGGGSRNYYGWYQQKSPGSVPVTVIYYDDQRPSNIPSRFSGALSGSTSTLTITGVQADDEAVYFCGSADSNTYEGSFGAGTTLTVL
binds: [1] | [2] | [3] | [4]

B10: F(ab')2 complex #46 (protein)
VH: GAELVRSGASVKMSCKASGYSFTDYNMYWVKQTPGQGLEWIGYIYPGNGGTNYNQKFKGKATLTADTSSSTAYMQISSLTSEDSAVYFCARDYDDGGYAMDYWGQGTTVTVSS
VL: DIQMTQSPASLSASVGETVTITCRASGNIHNYLTWYQQKQGKSPQLLVYNAKTLADGVPSRFSGSGSGTQYSLKINRLQPEDFGSYYCQHFWNIPWTFGGGTKLNSR
binds: [1] | [2] | [3] | [4]

B11: humanized antibody complex #9 (antibody, human IgG1, V domains shown)
VH: AVTLDESGGGLQTPGGALSLVCKASGFTFSGYDMLWVRQAPGKGLEWVAGIGSTGGGTDYGAAVKGRATISRDNGQSTVRLQLNNLRAEDTATYYCAKVAGGCNSGYCRDSPGSIDAWGHGTEVIVS
VL: AVTQQPASVSANPGETVKITCSGGGSRNYYGWYQQKSPGSVPVTVIYYDDQRPSNIPSRFSGALSGSTSTLTITGVQADDEAVYFCGSADSNTYEGSFGAGTTLTVL
binds: [1] | [2] | [3] | [4]

B12: F(ab')2 complex #69 (protein)
VH: EVQLVESGGGLVQPGGSLRLSCAASGFSLSSHSLGWVRQAPGKGLEWIGDIRSGGSAYYANWAKGRFTISRDNSKNTLYLQMNSLRAEDTAVYYCTRTNGPSDLTNRLDLWGQGTLVTVSS
VL: QVLTQSPSSLSASVGDRVTINCQASQSLYNNENLAWFQQKPGKVPKRLIYGASTLASGVSSRFSGSGSGTEFTLTISSLQCEDFAIYYCLGEFSCGSADCFAFGGGTKVEIK
binds: [1] | [2] | [3] | [4]

B13: F(ab')2 complex #70 (protein)
VH: EVQLVESGGGLVQPGGSLRLSCAASGFSLSSHSLGWVRQAPGKGLEWIGDIRSGGSAYYANWAKGRFTISRDNSKNTLYLQMNSLRAEDTAVYFCTRTNGPSDLTNRLDLWGQGTLVTVSS
VL: QVLTQSPSSLSASVGDRVTINCQASQSLYNNENLAWFQQKPGKVPKRLIYGASTLASGVSSRFSGSGSGTEFTLTISSLQCEDFAIYYCLGEFSCGSADCFAFGGGTKVEIK
binds: [1] | [2] | [3] | [4]

B14: F(ab')2 complex #71 (protein)
VH: EVQLVESGGGLVQPGGSLRLSCAASGFSLSSHSLGWVRQAPGKGLEWIGDIRSGGSAYYANWAKGRFTISRDNSKNTLYLQMNSLRAEDTAVYYCTRTNGPSDLTNRLDLWGQGTLVTVSS
VL: EQVLTQSPSSLSASVGDRVTINCQASQSLYNNENLAWFQQKPGKVPKRLIYGASTLASGVSSRFSGSGSGTEFTLTISNLQPEDFAIYYCLGEFSCGSADCFAFGGGTKVEIK
binds: [1] | [2] | [3] | [4]
